From PubChem BioAssay AID2685 (National Center for Advancing Translational Sciences (NCATS), 2010)
This is one part of the list. The main result of the screen is listed elsewhere. These columns were measured beside it and carry no call. Compounds called inactive in the main read-out are mostly missing here. Potencies come from curve fits of mixed quality, noted in brackets.

Assay: qHTS Assay for Lipid Storage Modulators in Drosophila S3 Cells;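 as to cell number change: cells counted by Cell Tracker Red CMTPX staining in the red channel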
Details: BODIPY lipid droplet fluorescence, 18-24 h; for cell number change: measured here: cell count max response, cells fed with added oleic acid
In short: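 Drosophila S3 cells got compounds at several concentrations plus oleic acid (400 uM solution). Laser-scanning cytometry with 488 nm excitation read lipid droplets at 500-530 nm and cells at 575-640 nm. Percent activity was relative to 20 uM Triacsin C.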

[1] = measured here: lipid fluorescence (Fed channel) AC50, cells fed with added oleic acid
[2] = measured here: cell number channel AC50, cells fed with added oleic acid

Row | Compound | AC50 [1] | cell number change [%] | AC50 [2]
1 | Cc1ccc(C(CC(=O)c2ccc(Cl)cc2)C(=O)O)cc1 (configuration not stated) | 0.00461 µM [falling, full curve, poor fit] |  | 
2 | COc1ccccc1NCC(=O)N/N=C(\C)c1ccc(Br)s1 | 0.92 µM [rising, partial curve] | -41 | 29.1 µM [falling, single point]
3 | CCc1ccccc1NC(=S)N(CCN(C)C)Cc1cccs1 | 0.00517 µM [rising, full curve, poor fit] | 17.4 | 
4 | CCOc1cc(S(=O)(=O)NCCc2ccccc2C)c(OCC)cc1-n1cnnn1 | 2.91 µM [rising, single point] | -4.53 | 
5 | CCc1cccc(CC)c1NC(=O)CN1CCN(c2ccccc2)CC1 | 0.116 µM [rising, full curve, poor fit] | 0.214 | 
6 | C=CCOC(=O)C(C#N)c1nc2ccccc2nc1N1CCN(c2ccccc2OCC)CC1 (configuration not stated) | 18.4 µM [falling, single point] | -48 | 18.4 µM [falling, single point]
7 | Cc1cc(C)c(C)c(S(=O)(=O)N2CCC(C(=O)N3CCCCCCC3)CC2)c1C | 0.651 µM [falling, partial curve, poor fit] | -43.6 | 5.8 µM [falling, full curve, poor fit]
8 | Cc1ccc(S(=O)(=O)c2c(C)cc(C)nc2N2CCCCC2)cc1 | 3.26 µM [falling, partial curve, poor fit] | 13.8 | 4.11 µM [falling, single point]
9 | Cc1nn(CCc2nn[nH]n2)c2nc(-c3ccc(C4CCCCC4)cc3)cc(C(F)(F)F)c12 |  | -46.2 | 29.1 µM [falling, single point]
10 | Cc1cc(C)c(OCCOCCN2CCNCC2)c(C)c1 | 3.66 µM [falling, partial curve] | -46.1 | 2.31 µM [falling, partial curve, poor fit]
11 | COc1cccc(C2=CC(=O)C[C@H](c3ccc(Cl)cc3)C2)c1 | 23.1 µM [rising, partial curve] | -0.963 | 
12 | CCc1nn(C(C)C(=O)NCCc2ccccc2)c(=O)c2cc3occc3n12 (configuration not stated) |  | -32.5 | 32.6 µM [falling, single point]
13 | CC(C)n1cc(/C=C(\C#N)S(=O)(=O)c2ccccc2)c2ccccc21 | 6.51 µM [falling, single point] | 252 | 29.1 µM [rising, single point]
14 | COc1ccc(NC(=O)C(=O)c2cn(CC(=O)N3CCCC3)c3ccccc23)c(OC)c1 |  | 13.4 | 
15 | Clc1cccc(OCCN2CCCC2)c1 | 8.2 µM [rising, partial curve] | 6.88 | 
16 | CN(/N=C/c1ccc([N+](=O)[O-])o1)c1ccccc1 |  | -33.2 | 20.6 µM [falling, single point]
17 | CCCOC(=O)c1ccc(NC(=O)Cc2cccs2)cc1 |  | -13.9 | 2.06 µM [falling, single point]
18 | Cc1ccc(CNC(=O)CCN2C(=O)[C@@H]3Cc4ccccc4CN3C2=O)cc1 | 0.58 µM [rising, single point] | 21.5 | 
19 | NC(=O)[C@@H]1CCCN1Cc1nc(Cc2cccc(C(F)(F)F)c2)no1 | 32.6 µM [rising, partial curve, poor fit] | 22.3 | 
20 | CCOC(=O)COc1cccc2c(=O)n(CC(=O)NCCc3ccccc3)ccc12 | 0.366 µM [falling, partial curve, poor fit] | 3.23 | 
21 | COc1ccc(CN2CCNC(=O)C2CC(=O)N(C)CC2CCOCC2)cc1OC (configuration not stated) |  | 8.4 | 
22 | CCC1C(=O)NCCN1C(=O)c1cccc(OC2CCN(S(=O)(=O)N(C)C)CC2)c1 (configuration not stated) | 8.2 µM [falling, partial curve] | 4.29 | 
23 | Clc1ccc(CN2CC[C@H]3C=CCc4cccc(c43)C2)cc1 | 0.146 µM [falling, single point] | -40.2 | 29.1 µM [falling, single point]
24 | C[C@]12CCC(=O)C=C1CC[C@@H]1[C@@H]2C(=O)C[C@@]2(C)[C@H]1CC[C@]2(O)C(=O)CO | 29.1 µM [rising, single point] | 35.7 | 29.1 µM [rising, single point]
25 | Cc1cc(OCc2cn3cccnc3n2)ccc1Cl |  | -4.64 | 
26 | Cc1cc(C)n2nc(SCN3C(=O)c4ccccc4C3=O)nc2n1 |  | -16.2 | 0.146 µM [rising, full curve, poor fit]
27 | CCOc1cc(C(=O)N2CCN(C/C=C/c3ccccc3)CC2)cc(OCC)c1OCC | 0.651 µM [falling, single point] | 48.3 | 29.1 µM [rising, single point]
28 | COc1ccc(N2CCN(C(=S)NC(C)c3ccccc3)CC2)cc1 (configuration not stated) |  | 24.6 | 

Row | Compound | AC50 [1] | cell number change [%] | AC50 [2]
29 | CCC(=O)NC(=S)Nc1cccc(Cl)c1N1CCCC1 |  | 90.5 | 16.4 µM [rising, partial curve]
30 | COc1ccc(N(C(=O)c2ccccc2OC(C)=O)C(C)C2CC2)cc1 (configuration not stated) | 3.26 µM [rising, single point] | 4.58 | 
31 | N#CN(CC(N)=O)c1nc(N2CCCCC2)nc(N2CCCCC2)n1 | 16.4 µM [falling, single point] | -11.1 | 
32 | Clc1ccc2[nH]c(-c3ccccc3)cc2c1 | 0.58 µM [falling, full curve, poor fit] | -8.97 | 
33 | COc1ccc2ccc3c(c2c1)N=C[C@]1(O3)N(C)c2ccccc2C1(C)C | 29.1 µM [falling, single point] | -87.6 | 20.6 µM [falling, partial curve]
34 | CC1(c2ccc([N+](=O)[O-])cc2)CC(C)(C)N(C(=O)c2ccccc2)c2ccccc21 (configuration not stated) |  | 8.12 | 
35 | COc1ccc(S(=O)(=O)N(C)CC(=O)NCCC2=CCCCC2)cc1C | 6.51 µM [falling, single point] |  | 
36 | CCCCc1ccc(NC(=O)COc2ccc(C(=O)Nc3ccccc3OCC)cc2)cc1 | 0.651 µM [falling, full curve, poor fit] | -33.2 | 9.2 µM [falling, partial curve]
37 | CC(=O)Nc1ccc(S(=O)(=O)N2c3ccccc3NC(=O)CC2C)c(Cl)c1 (configuration not stated) | 0.92 µM [falling, full curve, poor fit] | -11.4 | 
38 | CC(CCc1ccccc1)NC(=O)c1ccc(Br)cc1 (configuration not stated) | 29.1 µM [falling, single point] | 15.1 | 
39 | O=C(Nc1ccc2nsnc2c1)NC1CCCCC1 |  | 21.2 | 0.651 µM [rising, full curve, poor fit]
40 | COc1ccccc1N(/N=C1\Sc2ccccc2C1=O)C(C)=O | 18.4 µM [falling, partial curve] |  | 
41 | C[C@@H]1CC=C[C@H]2[C@H]1C(=O)N(Cc1ccccc1)[C@H]2c1ccc(-c2ccc(N(C)C)cc2)cc1F | 32.6 µM [falling, single point] | -11 | 
42 | CC(C)(C)c1ccc(S(=O)(=O)N2CC(=O)Nc3ccccc32)cc1 | 1.64 µM [falling, full curve, poor fit] | -66.1 | 29.1 µM [falling, single point]
43 | COc1ccccc1CCNC(=O)C(=O)NCC1OCCCN1S(=O)(=O)c1cc(C)ccc1C (configuration not stated) | 2.59 µM [falling, partial curve, poor fit] | -55.4 | 9.2 µM [falling, partial curve]
44 | CCOc1ccc(N2CC(C(=O)N3CCCCC3)CC2=O)cc1 (configuration not stated) |  | 9.57 | 
45 | Cc1c(Cc2ccc3c(c2)OCO3)sc(NC(=O)C(C)(C)C)c1C#N | 5.8 µM [rising, full curve] | 31.7 | 5.8 µM [rising, full curve, poor fit]
46 | Cc1ccc(C(=O)c2ccc(C)cc2)cc1 | 2.31 µM [rising, partial curve] | 38.3 | 9.2 µM [rising, single point]
47 | Cc1cc(C)cc(NC(=O)CNC(c2ccccc2)c2ccccc2)c1 | 13 µM [rising, partial curve] | 41.9 | 
48 | CC1CCC(NC(=O)c2ccc(NS(=O)(=O)c3ccc4[nH]c(=O)[nH]c4c3)cc2)CC1 (configuration not stated) | 29.1 µM [falling, single point] | -59.1 | 18.4 µM [falling, single point]
49 | Cc1ccc(-c2csc(NC(=O)C3=NN(c4ccccc4)C(=O)CC3)n2)cc1 | 0.00411 µM [falling, full curve, poor fit] | -6.24 | 
50 | CC1=C(C(N)=O)C(c2sccc2C)n2nnnc2N1 (configuration not stated) |  | -9.48 | 
51 | Cc1ccc2c(c1)C(c1ccccc1)N(C(=O)c1cccc([N+](=O)[O-])c1)CC(=O)N2 (configuration not stated) | 0.231 µM [rising, full curve, poor fit] | 12.9 | 
52 | Cn1c2c(c(=O)n(C)c1=O)C(c1ccccc1F)C(C#N)=C(N)O2 (configuration not stated) | 29.1 µM [rising, single point] |  | 
53 | COc1ccccc1C(=O)NCC(=O)N1CCN(c2ncccn2)CC1 | 18.4 µM [falling, single point] | -56.7 | 23.1 µM [falling, single point]
54 | CCSc1nnc(NC(=O)C2C3C=CC(C3)C2C(=O)O)s1 (configuration not stated) | 1.84 µM [falling, partial curve] | -56.2 | 0.651 µM [falling, full curve]
55 | O=C(CCSc1nnc(-c2ccco2)o1)Nc1ccc(F)cc1 |  | 26.8 | 0.00461 µM [rising, full curve, poor fit]

Not a retest: an excerpt of the list.
Row | Compound | AC50 [1] | cell number change [%] | AC50 [2]
32 | Clc1ccc2[nH]c(-c3ccccc3)cc2c1 | 0.58 µM [falling, full curve, poor fit] | -8.97 | 
33 | COc1ccc2ccc3c(c2c1)N=C[C@]1(O3)N(C)c2ccccc2C1(C)C | 29.1 µM [falling, single point] | -87.6 | 20.6 µM [falling, partial curve]
34 | CC1(c2ccc([N+](=O)[O-])cc2)CC(C)(C)N(C(=O)c2ccccc2)c2ccccc21 (configuration not stated) |  | 8.12 | 
35 | COc1ccc(S(=O)(=O)N(C)CC(=O)NCCC2=CCCCC2)cc1C | 6.51 µM [falling, single point] |  | 
